Results as given in PMC4770211.

B1: AtMed21, BiFC fusion (protein, UniProt C0LU16 1-139)
chain: MDIISQLQEQVNTIAAITFNAFGTLQRDAPPVQLSPNYPEPPATTTVTDDATPFPEQPKQLSAGLVKAAKQFDALVAALPLSEGGEGAQLKRIAELQVENDLVGQELQKQLEAAEKELKQVQELFGQAADNCLNMKKPE

Tests used:
[1] = target: T1, AtMed4, full length, yeast two-hybrid bait (Arabidopsis) (UniProt Q9LZ00); experiment: two-hybrid; Matchmaker Gold system; BD (pGBKT7) and AD (pGADT7) constructs co-transformed in yeast strain AH109, selected on SD-Trp-/Leu-, spotted at OD600 ~0.2 on SD-Trp-/Leu-/His-/Ade-; full-length subunits and deletion fragments
T1 sequence: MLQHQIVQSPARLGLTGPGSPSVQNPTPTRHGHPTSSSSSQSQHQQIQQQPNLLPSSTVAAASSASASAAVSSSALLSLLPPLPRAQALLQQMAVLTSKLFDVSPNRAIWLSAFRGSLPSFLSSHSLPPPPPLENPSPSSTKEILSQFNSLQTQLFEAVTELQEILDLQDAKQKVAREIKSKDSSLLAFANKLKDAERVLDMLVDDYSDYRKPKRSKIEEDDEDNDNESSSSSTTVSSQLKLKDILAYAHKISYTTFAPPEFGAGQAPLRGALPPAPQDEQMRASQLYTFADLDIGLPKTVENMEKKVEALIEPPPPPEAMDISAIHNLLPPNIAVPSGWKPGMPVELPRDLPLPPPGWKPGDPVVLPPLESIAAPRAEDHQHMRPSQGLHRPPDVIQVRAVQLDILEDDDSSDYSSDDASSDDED

[2] = target: AtMed7, BiFC fusion (Arabidopsis); experiment: split reporter; BiFC assay; vectors and cells not told for this pair

Molecule | binding [1] | binding [2]
AtMed7, yeast two-hybrid fusion (Arabidopsis) | no binding | –
B1 | – | binds

No constants are given. Whether binding was seen depends on the method and setting. For some assays here: In cells and extracts the contact can be indirect. For some assays here: Binding calls can cover weak binding; strength is not graded here. For some assays here: Sequences can lack the tags named with a protein.
